# Laboratory results as given in PubChem BioAssay AID493014 (National Center for Advancing Translational Sciences (NCATS), 2011).
# The campaign covered roughly 340,000 compounds. About 170 (0.05%) were called active. This list was built around the results that the source calls inconclusive (neither active nor inactive); the mix of calls is not that of the screen. Calls come from the whole dose curve; as a rule, active = well fitted inhibition curve with a large enough effect in the signal ratio, with a control signal flat (not every such curve was filed as active); inconclusive = small, poorly fitted or top-dose-only effect, or effect the other way, or a change in a side signal; inactive = flat fitted curve, though single readings scatter; the % refers to the signal ratio. A potency beside an inconclusive call is a rough fit, not a confirmed value.
# Assay: qHTS Assay to Find Inhibitors of Chronic Active B-Cell Receptor Signaling;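 for activity change, negative = inhibition: plate controls were basal doxycycline-induced cells for no effect and cells given 10 µM MG132 for full effect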
# Conditions: ABC-DLBCL IkBa-CBG/CBR reporter, luminescence ratio (green luciferase fused to IkBa over red control in TMD8 lymphoma cells), 4 h; activity change, negative = inhibition: at 46.1 µM (top of the series)
# How it was run: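 Compounds up to 46 uM were incubated four hours with TMD8 cells whose green CBG68 luciferase is fused to IkappaBalpha; red CBR luminescence normalised the signal, and concentration-effect curves were fitted to fusion, red and ratio data.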
# Potency is the fitted concentration of half-maximal effect.
Structure (SMILES),"activity change, negative = inhibition",Potency
CC1CC2(CC(C)(C(=O)CSc3n[nH]c(-c4ccccc4Cl)n3)OC2=O)C(=O)O1 (stereo unspecified),inactive,
CCOc1ccccc1NC(=O)CSc1nc(=O)n(Cc2ccncc2)c2c1CCC2,,"inconclusive: 23.1 µM [falling, partial curve]"
CCn1c(=O)n(CC)c2cc(N3CCCC3)c(NC(=O)c3cccc(Cl)c3)cc21,inactive,
N#Cc1ccccc1OCC(=O)N(Cc1nnc(-c2ccccc2Cl)o1)C1CC1,,"inconclusive: 16.4 µM [falling, partial curve]"
COc1ccc(C(=O)Nc2ccc(NC(=O)c3ccccc3)cc2)cc1S(=O)(=O)N1CCOCC1,inconclusive: 2.79%,
Cc1occc1-c1nnc(SCC(=O)c2c(N)n(Cc3ccccc3)c(=O)n(C)c2=O)n1C,inconclusive: 2.3%,
CN(CCOc1ccccc1Cl)Cc1ccccc1,inactive,
CCOC(=O)Cc1csc(NC(=O)COc2ccc3c(c2)CCC3)n1,,"inconclusive: 28.2 µM [falling, single point]"
CCCCOCCCNS(=O)(=O)c1ccccc1,inactive,
C#CCN(Cc1ccco1)C(=O)c1cc(COc2ccc(F)cc2Cl)on1,,"inconclusive: 22.4 µM [falling, single point]"
O=C(CCCc1c[nH]c2ccccc12)Nc1ncccc1O,,"inconclusive: 25.1 µM [falling, partial curve]"
Cc1cc2nc(-c3cccc(NC(=O)c4ccc(Br)o4)c3C)oc2cc1C,inconclusive: 2.13%,
CCc1cc(C(c2ccncc2)N2CCN(C)CC2)c(NC(=O)c2ccccc2)s1 (stereo unspecified),inconclusive: -14.6%,
Cc1csc2c(N3CCN(C(=S)Nc4ccc(C(F)(F)F)cc4)CC3)ncnc12,inconclusive: -11.2%,
CC(C)OCCCNc1nc(-c2ccccc2)nc2ccccc12,inconclusive: 8.28%,
COc1cc(S(=O)(=O)NCc2cccnc2)c(OC)cc1Br,inconclusive: 0.172%,
O=C(NCC1CCCO1)c1ccc(COc2ccccc2)o1 (stereo unspecified),inconclusive: 6.85%,
COc1ccc(-c2cc(C(=O)N3CCOCC3)no2)cc1,,"inconclusive: 22.4 µM [falling, partial curve]"
CN(C(=O)c1ccc(NC(=O)Cc2cccc(NC(=O)C3CCN(C(=O)CCc4ccccc4)CC3)c2)cc1)C1CCCC1,,"inconclusive: 4.11 µM [rising, full curve, poor fit]"
Cc1ccc(C(=O)O/N=C(\N)c2ccccn2)cc1C,,"inconclusive: 5.62 µM [rising, single point]"
Nc1cccc(C(=O)NCCNC(=O)c2cccc(N)c2)c1,inconclusive: 3.91%,

Structure (SMILES),"activity change, negative = inhibition",Potency
COc1ccc(-c2[nH]c(-c3cccc(OC)c3)nc2SCC(=O)NCc2ccco2)cc1,inconclusive: -11.7%,
COC(=O)c1ccc(NC(=O)c2cccc(NC(=O)c3ccco3)c2)cc1,inconclusive: -15%,
Cc1ccc(S(=O)(=O)N2CCCCC2CCNC(=O)C(=O)NCc2ccccc2C)cc1 (stereo unspecified),inconclusive: -14.6%,
c1ccc(Nc2c(-c3ccco3)nc3ccccn23)cc1,inconclusive: -16.1%,
O=C(CCC(=O)Nc1ccc(Br)cc1)N/N=C/c1ccc(O)cc1,inactive,
Cn1ccnc1SCC(=O)Nc1nc2ccccc2s1,,"inconclusive: 25.1 µM [falling, single point]"
Cc1ccccc1C(=O)N1CCN(c2ccc(NC(=O)Cc3ccccc3)cc2)CC1,inconclusive: -8.43%,
CC(=O)c1cccc(N=C2NC(=O)CS2)c1,,"inconclusive: 10.3 µM [falling, partial curve, poor fit]"
COc1ccc(CNC(=O)c2cccc(S(=O)(=O)N3CCN(c4ccc(F)cc4)CC3)c2)cc1,inactive,
Cc1[nH]c2ccccc2c1C(=O)COC(=O)c1ccc([N+](=O)[O-])s1,inconclusive: 4.78%,
CCOc1cc(/C=C2/NC(=O)N(CC(=O)OC)C2=O)ccc1O,inconclusive: 19.6%,
COc1cc(/C=N/NC(=O)CCN2CCN(c3ccccc3)CC2)cc(OC)c1OC,inactive,
C[C@H](CO)N1C[C@H](C)[C@@H](CN(C)S(=O)(=O)c2cn(C)cn2)Oc2ccc(NC(=O)C3CCCCC3)cc2C1=O,inactive,
COc1cc(C=O)ccc1OCCCOc1ccccc1C(=O)O,inactive,
CCC1(C)Cc2c(sc3nnn(CC(=O)Nc4ccccc4)c(=O)c23)CO1 (stereo unspecified),inconclusive: -0.233%,
N#Cc1ncc(-c2ccc3c(c2)OCCOCCOCCOCCOCCO3)nc1C#N,,"inconclusive: 5.8 µM [falling, single point]"
c1ccc(CSc2ccc(-c3cccs3)nn2)nc1,,"inconclusive: 17.8 µM [falling, single point]"
CC(=O)c1cccc(N(CC(=O)NC2CCCC2)C(=O)c2csnn2)c1,inactive,
CCOc1ccc(CNC(=O)c2cnc(SC)nc2CC)cc1,inconclusive: 10.1%,
CN(CC(=O)NCCc1ccc(F)cc1)Cc1ccc(Br)cc1,inactive,
COc1ccccc1Nc1nc(-c2sc(NC(=O)CC(C)C)nc2C)cs1,inactive,

Structure (SMILES),"activity change, negative = inhibition",Potency
O=C(NCCN1C(=O)S/C(=C\c2cccc(Cl)c2Cl)C1=O)C1=COCCO1,inactive,
CC(C)(C)c1nn2cnnc2n(/N=C/c2ccccc2)c1=O,inactive,
COc1cc2c(ccc3cc(OC)c(OC)c(O)c32)cc1O,,"inconclusive: 25.1 µM [falling, single point]"
Cc1onc(-c2ccccc2)c1C(=O)N/N=C/c1ccc(Br)cc1,inactive,
O=c1[nH]c(C2CCN(S(=O)(=O)c3cccc([N+](=O)[O-])c3)CC2)nc2c1nnn2Cc1ccccc1,inactive,
O=C(CNC(=O)c1nc[nH]c1C(=O)NCc1ccccc1)OCc1ccccc1,inactive,
COC(=O)/C(=C\Nc1ccc(Cl)c2ccccc12)c1ncc(C(F)(F)F)cc1Cl,inconclusive: 1.47%,
S=C(NCCc1ccccn1)Nc1cc(Cl)cc(Cl)c1,inactive,
CCOC(=O)CSc1[nH]c2cc(OC)ccc2c1[N+](=O)[O-],inconclusive: 7.64%,
CCN1C(=O)C(O)(C2COC(C)(C)CC2=O)c2cc(Br)ccc21 (stereo unspecified),,"inconclusive: 4.61 µM [falling, full curve]"
Cc1ccccc1-c1ccc(C=Nc2c(C)n(C)n(-c3ccccc3)c2=O)o1,inconclusive: -0.769%,
COC(=O)c1ccc(NC(=S)NNC(=O)c2ccccc2)cc1,inconclusive: 409%,
CNC(=S)N/N=C(\C)c1ccc(C(C)(C)C)cc1,,"inconclusive: 20.6 µM [falling, partial curve, poor fit]"
C/C=C(/C)C(=O)OC1CC(C)(C)C[C@H]2C3=CC[C@@H]4[C@@]5(C)CCC(O[C@@H]6O[C@@H](C(=O)O)[C@@H](O)C(O[C@@H]7OC[C@H](O)[C@@H](O)[C@@H]7O[C@@H]7OC(CO)C(O)[C@@H](O)[C@@H]7O)C6O[C@@H]6OC(CO)C(O)C(O)C6O)[C@@](C)(CO)[C@@H]5CC[C@]4(C)[C@]3(C)CC(O)[C@@]12CO (stereo partly specified),,"inconclusive: 29.1 µM [rising, partial curve, poor fit]"
Cc1sc2nc(C(C)Nc3ccccc3N3CCOCC3)[nH]c(=O)c2c1C (stereo unspecified),inactive,
Cc1ccc(CN=C2NC(=O)C(CC(=O)NCCc3ccccc3)S2)cc1 (stereo unspecified),inconclusive: 6.58%,
CC1(C)Cc2c(c(N3CCOCC3)nc3sc4c(NN)ncnc4c23)CS1,,"inconclusive: 3.66 µM [falling, partial curve, poor fit]"
CC(=O)Nc1ccc(C(=O)OCc2ccccc2Cl)cc1,,"inconclusive: 29.1 µM [falling, single point]"
O=C(O)Cn1c2c(c3ccccc31)CSc1ccc(Cl)cc1-2,inconclusive: -10.4%,
Cn1c(SCc2ccccc2)nnc1-c1ccncc1,inconclusive: 3.42%,
CN(C)CCOc1ccc2ccccc2c1,inconclusive: 6.67%,

Structure (SMILES),"activity change, negative = inhibition",Potency
COc1ccc(C(=O)CSc2nnc(-c3ccccn3)n2Cc2ccco2)cc1,inconclusive: 1.91%,
CNC(=S)N1CCc2cc(OC)c(OC)cc2C1COc1ccc(OC)cc1 (stereo unspecified),,"inconclusive: 11.2 µM [falling, partial curve, poor fit]"
COc1cc(/C=C/CN2CCN(Cc3ccc(C)o3)C(CCO)C2)ccc1O (stereo unspecified),inactive,
COc1ccccc1/C=C/C(=O)NC(=S)NC(C)C,inconclusive: -0.564%,
CC1(C)Cc2nc3sc4c(N(CCO)CCO)ncnc4c3cc2CO1,inactive,
O=C(CSc1nnnn1Cc1ccccc1)NC1CCCCC1,inconclusive: 2.04%,
CCOc1cc(/C=N\NC(=O)CC(=O)NCCc2ccccc2)ccc1O,inactive,
CCOC(=O)c1c(CC(C)C)csc1NC=O,inconclusive: -0.243%,
Cc1nc2ccc(NS(=O)(=O)c3ccccc3F)cc2s1,inactive,
O=C(NC(=S)Nc1ccccc1N1CCOCC1)c1cccs1,inconclusive: -12.1%,
Cn1cc(C(=O)c2ccccc2)cc1-c1nc2ccccc2n1C,inconclusive: 5.08%,
Cn1nc(C(=O)Nc2ccccc2)c2c1-c1ccccc1S(=O)(=O)C2,inconclusive: 8.32%,
CCCCOc1ccc(-c2nc(-c3cccnc3)no2)cc1,inconclusive: 6.36%,
CC(C)c1ccc(C(O)P(=O)(OC2CCCCC2)OC2CCCCC2)cc1 (stereo unspecified),inactive,
COc1ccc(CC(=O)Nc2nc(-c3ccc(F)c(F)c3)cs2)cc1OC,inconclusive: 3.91%,
CCOC(=O)c1cc(S(=O)(=O)NC2CCC(C)CC2)cn1C (stereo unspecified),inconclusive: -13.8%,
O=C(O)Cc1csc(-c2ccc(F)cc2)n1,,"inconclusive: 12.6 µM [rising, partial curve, poor fit]"
O=C(O)c1cc(N/N=C/c2ccc(N3CCOCC3)s2)ccc1Cl,,"inconclusive: 16.4 µM [falling, partial curve]"

# Among those listed so far, these contain bromine.
Structure (SMILES),"activity change, negative = inhibition",Potency
Cc1cc2nc(-c3cccc(NC(=O)c4ccc(Br)o4)c3C)oc2cc1C,inconclusive: 2.13%,
COc1cc(S(=O)(=O)NCc2cccnc2)c(OC)cc1Br,inconclusive: 0.172%,
O=C(CCC(=O)Nc1ccc(Br)cc1)N/N=C/c1ccc(O)cc1,inactive,
CN(CC(=O)NCCc1ccc(F)cc1)Cc1ccc(Br)cc1,inactive,
Cc1onc(-c2ccccc2)c1C(=O)N/N=C/c1ccc(Br)cc1,inactive,
CCN1C(=O)C(O)(C2COC(C)(C)CC2=O)c2cc(Br)ccc21 (stereo unspecified),,"inconclusive: 4.61 µM [falling, full curve]"
